## Primary screen of a compound library

By UniProt entry, the sequences of proteins in these tests, tags left out.
UniProt E9BF75, entry or part of it: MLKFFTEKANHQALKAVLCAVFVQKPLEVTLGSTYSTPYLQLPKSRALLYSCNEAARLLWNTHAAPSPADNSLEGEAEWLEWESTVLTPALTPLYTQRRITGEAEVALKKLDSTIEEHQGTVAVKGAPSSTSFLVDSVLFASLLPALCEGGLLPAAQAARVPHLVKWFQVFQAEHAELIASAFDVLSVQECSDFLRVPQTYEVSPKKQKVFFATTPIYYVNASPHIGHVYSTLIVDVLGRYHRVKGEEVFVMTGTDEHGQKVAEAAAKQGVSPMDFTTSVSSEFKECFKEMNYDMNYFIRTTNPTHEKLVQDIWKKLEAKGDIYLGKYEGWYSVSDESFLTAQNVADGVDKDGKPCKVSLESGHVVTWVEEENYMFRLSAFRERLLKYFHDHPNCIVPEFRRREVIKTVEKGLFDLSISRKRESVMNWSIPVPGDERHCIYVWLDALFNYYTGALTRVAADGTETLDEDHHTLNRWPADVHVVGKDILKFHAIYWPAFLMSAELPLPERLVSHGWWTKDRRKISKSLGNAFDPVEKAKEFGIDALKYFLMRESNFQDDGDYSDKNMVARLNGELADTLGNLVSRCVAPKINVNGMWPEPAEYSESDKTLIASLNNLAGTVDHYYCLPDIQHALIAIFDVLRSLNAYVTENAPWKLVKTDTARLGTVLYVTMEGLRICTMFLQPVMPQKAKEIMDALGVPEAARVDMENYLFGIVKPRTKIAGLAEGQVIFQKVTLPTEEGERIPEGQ

Results are percentages, as filed.
The controls that fix the scale are not given in the record; negative values are as filed.
The compounds are a random part of those screened.
A dash means the value is not listed here; it may have been measured.

A: 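Assay on Mycobacterium tuberculosis, filed only as a heat shock assay from Cornell; the read-out is not stated. The concentration is filed as 10 mM, unlikely as a test dose, so the dose is not known. Direction is inferred from retests: higher values go with stronger inhibition. About 69,000 compounds were tested under these conditions; 1.4% (about 930) showed 50% or more at least once.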
B: 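Whole-cell assay for inhibitors of Mycobacterium tuberculosis growth, labelled Cornell in the record; the read-out is not stated. The concentration is filed as 10 mM, unlikely as a test dose, so the dose is not known. Higher means stronger inhibition (inferred from two other growth screens of the library). Of about 53,000 compounds tested this way, about 900 (1.7%) reached 50% or more in at least one test.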
C: 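Primary screen of methionyl-tRNA synthetase; the read-out is not stated. Target: Methionyl-tRNA synthetase (putative), Leishmania donovani (UniProt E9BF75). The test concentration is not given. Values are per cent inhibition. Size under these conditions: about 68,000 compounds, about 24 of them at 50% or above in at least one test.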

SMILES | A | B | C
O=C(c1ccccc1F)N1CCOC(c2nc(-c3ncccn3)no2)C1 (stereo not drawn) | -22.44 | 7.335 | 17.51
CC(C)N(CC(N)=O)CC(=O)NCCc1c(F)cccc1F | 17.74 | 2.586 | 10.92
O=C1C[C@H]2CC[C@@H](CN1)N2C(=O)CCc1ccsc1 | - | - | 20.1
CN(Cc1cnccn1)CC1CCOc2ccccc2C1 (stereo not drawn) | -21.82 | 10.55 | 13.87
CC(C)NC(=O)CCNC(=O)CCc1cc(Cl)cs1 | -27.34 | 1.961 | 12.2
Cc1cc(C)n(CC(C)Nc2nc(C)nc3c2CCNC3)n1 (stereo not drawn) | -11.18 | 22.61 | 12.93
CCc1nccn1-c1cncc(C2CCCN2Cc2ccccc2)n1 (stereo not drawn) | -4.46 | - | 6.824
[H][C@]12CCC[C@@]1(COCC1CCOCC1)CN(C(=O)c1ccnnc1)C2 | 4.979 | 18.61 | -
O=c1c(CN2CCCCC2)coc2ccc(Cl)cc12 | -176.6 | - | 10.57
CSc1ccccc1C(=O)N1C[C@H]2CC[C@@H]1CN(C(=O)C1CCC1)C2 | - | - | 15.62
CCC(Nc1nnnn1-c1ccccc1)C(=O)Nc1nc(C)cs1 (stereo not drawn) | 23.94 | 28.75 | 5.072
CCC(O)CN1CCN(C(=O)CCSC)CC1 (stereo not drawn) | -11.37 | - | 12.99
CC(C)[C@H](NS(C)(=O)=O)C(=O)NCc1cc(-c2ccco2)n[nH]1 | -2.823 | -82.37 | 9.951
COc1ccc(-c2csc(N)c2C#N)cc1OC | 4.604 | - | 3.734
CN(CCCNc1cc(N2CCCC2CO)ncn1)S(C)(=O)=O (stereo not drawn) | -11.7 | -9.426 | 5.419
CN1C(=O)C2(CCN(CC3CC3)CC2)c2ccccc21 | - | - | 15.15
Cc1cc(O)c(OCC(=O)/N=c2\[nH]c(C)c(C)s2)cn1 | 14.69 | 27.09 | 17
Cc1ccc(CNc2ccn(CCc3ccncc3)n2)s1 | 4.488 | 15.75 | 15.96
Cc1nc2c(c(=O)n1C)CCN(Cc1cc3ccccc3[nH]1)CC2 | -27.16 | - | 7.519
Cc1cc(CN(C)CC2(O)CCCN(CCC3CCCCC3)C2=O)no1 (stereo not drawn) | -19.69 | -5.531 | 2.346
Cc1nc(CN2C(=O)CCC23CCN(c2ncccn2)CC3)cs1.O=C(O)C(F)(F)F | -4.824 | 17.87 | -
O=C(NCCn1ccnc1)c1csc(Br)c1 | 2.111 | -2.788 | 10.99
CNC(=O)C1CCCCN1C(=O)c1sc(-c2ccc(C)o2)nc1C (stereo not drawn) | -9.114 | -7.064 | 9.409
CCOc1ccc(CNCC(O)c2ccccc2)cc1Cl (stereo not drawn) | - | - | 10.74
Cc1nc(-c2ccccc2)nc2c1CCN(Cc1nccn1C)CC2 | 16.56 | 6.349 | 15.25
O=C(O)C(F)(F)F.[H][C@@]12CCN(Cc3ccco3)C[C@@]1([H])[C@H](C(=O)NCC1CC1)CCO2 | -3.193 | -16.52 | -
NCCn1nc(C2CCN(C(=O)CC3CCCCC3)C2)c2nccnc21 (stereo not drawn) | 16.09 | - | 19.16
CNC(=O)CN1CCC2(CCCN(CC3CCOC3)C2)CC1.O=C(O)C(F)(F)F.O=C(O)C(F)(F)F (stereo not drawn) | 3.829 | -4.255 | -
CC(=O)N1CC[C@@H]2O[C@@H](COCC(=O)N3CCCC3)CC[C@@H]21 | - | - | 7.5
CC(C)S(=O)(=O)Cc1cccc(NC(=O)c2ccc[nH]2)c1 | 16.12 | - | 15.06
O=C(C1CCCC1)N1CCC2(CC1)COCCN2CC1CC1 | - | - | 10.44
COCC(=O)N1CC[C@]2(O)CCN(Cc3cccnc3OC)C[C@@H]2C1 | - | - | 6.959
CCC(C(=O)NCc1ccccn1)N(c1cccc(C)c1)S(C)(=O)=O (stereo not drawn) | -4.823 | -41.69 | 9.497
c1ccc(CCCN2CCCC(Nc3cnc4ccccc4n3)C2)cc1 (stereo not drawn) | 9.817 | 39.62 | 21.49
c1ccn2c(C3CCCN3Cc3nc(C4CC4)no3)nnc2c1 (stereo not drawn) | -21.19 | -1.658 | 11.15
CN1C(=O)C2(CCN(Cc3nccn3C)CC2)c2ccccc21.O=C(O)C(F)(F)F | -4.224 | - | -
CO[C@H]1CN(Cc2nc3ccccc3n2C)CC[C@@]12CCCO2 | 18.63 | 16.45 | 18.07
CN(CCc1ccccc1)Cc1c(C2CC2)[nH]c2ncccc12 | 0.893 | 22.38 | 14.69
CCCN1C(=O)[C@H]2CC[C@@H]1CN(S(=O)(=O)c1cccc(Cl)c1)C2 | - | - | 9.244
O=C(O)C(F)(F)F.O=C(O)C(F)(F)F.O=C(O)c1cc2c(nc1-c1ccsc1)CCN(C1CCOC1)CC2 (stereo not drawn) | -30.88 | 23.63 | -
COCCC1COC2(CCN(C(=O)c3ccncc3)CC2)C1.O=C(O)C(F)(F)F (stereo not drawn) | -1.1 | -13.79 | -
O=C(c1cccc(C(F)(F)F)c1)N1CC(=O)N(C2CCC2)CC(O)C1 (stereo not drawn) | 26.16 | 8.672 | 4.658
CN(Cc1ccncc1)C1COC2(CCN(Cc3ccccn3)CC2)C1 (stereo not drawn) | - | - | 7.843
Nc1ncncc1-c1noc([C@@H]2CCCN2CCCc2ccccc2)n1 | -9.606 | 16.26 | 13.22
CCOCC1CN(C(=O)CS(C)(=O)=O)Cc2cnn(C)c21 (stereo not drawn) | - | - | 17.99
COCCN1CCC2(CC1)CC1(CCN(S(C)(=O)=O)CC1)N(C)C2=O | - | - | 14.14
COc1cccc(N2CCC(CNc3cc(C)nc4ncnn34)C2)c1 (stereo not drawn) | 20.1 | - | 8.239
CC(C)Oc1ccc(NCc2ccc([S+](C)[O-])cc2)c(F)c1 (stereo not drawn) | 2.072 | 2.658 | 1.087
Cc1noc(C)c1CN(C)C(=O)c1n[nH]c(N)c1-c1ccccc1 | 20.16 | 5.203 | 18.92
COCCNC(=O)Cn1cc(NC(=O)c2cc(Cl)c(Cl)n2C)cn1 | 1.299 | -4.993 | 8.657
Cn1cc(C(=O)NCc2cn3c(n2)CN(C2CCOCC2)CC3)cn1.O=C(O)C(F)(F)F | -17.41 | 4.913 | -
COCCNC(=O)[C@H]1C[C@@H]2CCN(c3nncs3)C[C@H]2O1 | - | - | 12.38
COCCCNS(=O)(=O)c1ccc(N2CCCCS2(=O)=O)cc1 | 11.4 | 15.17 | 8.451
Cc1ccc(OCCN(C)Cc2nc3c(cnn3C)c(=O)[nH]2)cc1 | 33.97 | 1.012 | 17.6
CCCc1cc(C(=O)NCCn2nc3ccccn3c2=O)[nH]n1 | 5.095 | 41.8 | 4.7
COCCN1CCC(CNC(=O)C2(c3cc(C)cc(C)c3)CCC2)C1 (stereo not drawn) | 14.18 | 20.09 | 10.24
Cc1ccc(-c2[nH]c3ccccc3c2C(=O)O)c(C)c1 | -3.674 | - | -7.429
O=C(NCCCOCC1CC1)Nc1ccc(-n2cncn2)c(F)c1 | -10.62 | - | 7.368
O=C(NCc1ccccc1F)C1=NOC2(CCNC2)C1 (stereo not drawn) | - | - | 5.882
C[C@]1(O)CCN(Cc2ncccc2F)C[C@@H]1Oc1cccc(F)c1 | -12.36 | 12.32 | 16.77
CN(C)C(C(=O)NCCn1cccc1)c1cccc(F)c1 (stereo not drawn) | -36.27 | 10.74 | 21.4
[H][C@@]12CCN(C(C)=O)[C@]1([H])C(=O)N(Cc1ccccc1)C(=O)N2 | -31.34 | - | -
CN(C)C(=O)c1nnc2ccc(N3CCOCC3)cc2n1 | -10.47 | - | -28.89
CCC(O)(CNCc1ncc[nH]1)c1ccc(Br)cc1 (stereo not drawn) | 29.3 | 47.97 | 11.45
O=C(Nc1ccccc1OC(F)F)C1=NN(c2ccccc2)C(=O)CN1 | 14.58 | 10.55 | 2.347
Cc1ccc(-c2csc(N)c2C#N)c(C)c1 | 11.35 | -32.25 | -0.9091

8 of the entries, repeated:

{"smiles": "COCCNC(=O)Cn1cc(NC(=O)c2cc(Cl)c(Cl)n2C)cn1", "A": 1.299, "B": -4.993, "C": 8.657}
{"smiles": "O=C(NCc1ccccc1F)C1=NOC2(CCNC2)C1", "stereo": "stereo not drawn", "C": 5.882}
{"smiles": "CN1C(=O)C2(CCN(Cc3nccn3C)CC2)c2ccccc21.O=C(O)C(F)(F)F", "A": -4.224}
{"smiles": "CN(Cc1ccncc1)C1COC2(CCN(Cc3ccccn3)CC2)C1", "stereo": "stereo not drawn", "C": 7.843}
{"smiles": "CCC(O)CN1CCN(C(=O)CCSC)CC1", "stereo": "stereo not drawn", "A": -11.37, "C": 12.99}
{"smiles": "Cn1cc(C(=O)NCc2cn3c(n2)CN(C2CCOCC2)CC3)cn1.O=C(O)C(F)(F)F", "A": -17.41, "B": 4.913}
{"smiles": "c1ccn2c(C3CCCN3Cc3nc(C4CC4)no3)nnc2c1", "stereo": "stereo not drawn", "A": -21.19, "B": -1.658, "C": 11.15}
{"smiles": "Cc1ccc(-c2[nH]c3ccccc3c2C(=O)O)c(C)c1", "A": -3.674, "C": -7.429}

Data taken from ChEMBL document CHEMBL3988442, “University of Dundee, Small-Polar-MMV Screening Library” (2021).